According to US20160198705A1, “APPLICATION OF BISPHENOL SALT IN PREPARING DISINFECTANT USED FOR STERILIZATION OR FORMALDEHYDE REMOVAL” (NINGBO YUCHEN ENVIROCLEAN TECH CO., LTD., priority 2013, published 2016):

Assay: Removal of formaldehyde from the air in a sealed stainless steel box, compared with activated carbon

In the case of `[K+].[K+].[O-]c1ccccc1-c1ccccc1[O-]` [ortho-bisphenol potassium], the “concentration of formaldehyde in the air” value (time 0 hour (initial), 500 ml of 5% water solution pH=10 or 500 grams activated carbon in sealed box) is reported as 10 ppm, the “concentration of formaldehyde in the air” value (time 1 hour, initial 10 ppm, 500 ml of 5% water solution pH=10 or 500 grams activated carbon) is reported as 8.2 ppm and the “concentration of formaldehyde in the air” value (time 2 hour, initial 10 ppm, 500 ml of 5% water solution pH=10 or 500 grams activated carbon) is reported as 6.3 ppm. For the same molecule, the “concentration of formaldehyde in the air” value (time 3 hour, initial 10 ppm, 500 ml of 5% water solution pH=10 or 500 grams activated carbon) was 5.1 ppm, the “concentration of formaldehyde in the air” value (time 4 hour, initial 10 ppm, 500 ml of 5% water solution pH=10 or 500 grams activated carbon) was 2.8 ppm and the “concentration of formaldehyde in the air” value (time 5 hour, initial 10 ppm, 500 ml of 5% water solution pH=10 or 500 grams activated carbon) was 1.6 ppm.
